From PMC6286383 come the findings set out here.

The target in the test is γH2AX (histone H2AX phosphorylated at serine-139) (mouse (endogenous in testis)) (UniProt P27661). Briefly: affinity purification with mass spectrometry; IP-MS on P15 wild-type mouse testis with γH2AX and SETDB1 as bait; LFQ enrichment against control IgG-IP (Welch's t-test, FDR 0.01).

Results are given in words; binding and its absence hold for the method and conditions named. In cells and extracts the contact can be indirect. A yes stands for co-enrichment or nearness to the bait. Other partners may have been found. No binding means not detected with the bait.

B1: ATF7IP (protein, UniProt Q7TT18 1-1306)
chain: MDSVEEPQKKVFKARKTMRASDRQQLDAVHRVKGELLRADGKLLNGSHENGDLDPTSPLENTDCIQDREEVNGIDGICFQSEESTTEWKETPCMPNVAVKNKQEDLNSEALSPSITCDLSSRVTTEPGSGSPASDNPGCGTPVSDNPASDNPASDNPASDNPDSGDLAAGELATTVQATGDSACEEPPSSDPSSSDPTSSEPSSSEPTCSEPISGDPVSEEAASHDLVSGDSTCSEPVSGEPVSHEAASSEPATSEPASDEPVARVVAACELAPGESALDDCAPSGDSQSDEPPSSEDSLPRSVCSGLASGELTPGELSVEPATDTVKPSSSAVCEAGPDPDKTEPSSNNSDDCPGKSEDDEHLDQIQSKDSCDEGNKVNSNVVEKEEPLETHSAIICSDLPPENTTKIAEDPIAEPALEEEAISSSMEVDQSEKDEHKSPAEPVAAVSEDPAEEDKEDTVVDNTDSMETDEIIPILEKLAPTEDELSCFSKASLLPVETSQDLEDKMEGSFGSPSKQESSENLPKEAFLVLSDEEDLSCGKDESEAVAQSKMSTPEGEKSEKDGKAEEEERVPAEEQPPVRNEFSRRKRSKSEDMDSVESKRRRYMDEEYEAEFQVKITAKGDINQKLQKVIQWLLQEKLCALQCAVFDKTLAELKTRVEKIECNKRHKAVLTELQAKIARLTKRFGAAKDDLKKRQESPPNPPISPGKPANDTNSNNNMTYRNAGTVRQLLESKRNVSEGPPPSFQTPVNTVSSASHATSTAVVSSQPKLQTSATSGSLPAAPLLPAPSTATVVATTQVPSGTPQPTISLQPLPVILHVPVAVTSQPQLLQSHPGTLVTNQPSGNVEFISVQSQPTVSGLTKNPVSLPPLPNPTKPNIPSVPSPSSIQRNSSTTAAPLGTTLAVQAVPTAHSIVQATRTSLPTVGPSGLYSSSSSRGPIQMKIPISTFSPPSSAEQNSSATPRIVTENQTNKTVDSSINKKAADSTSQSGKASSSDSSGVIDLTMDDEESGTTQDPKKISPPSSSTVSTSQPMSRPLQPILPAPPLQPSGVPTSGPSQATIHVLPTAPTTVNVTHRPVTQVTTRLPVPRAPANHQVVYTTLPAPTTQAPLRGTVMQAPAVRQVNPQNSVTVRVPQTTTYVVNNGLTLGSAGPQLTVHHRPPQVHNEPPRPLHPAPLPEAPQPQRLPPEAASTSLPQKPHLKLARVQSQNGIVLSWSVLEVDRSCATVDSYHLYAYHEEPSATVPSQWKKIGEVKALPLPMACTLTQFVSGSKYYFAVRAKDIYGRFGPFCDPQSTDVISSSQNS
Consider B1, for which the binding result is “no binding”.

B2: ATF7IP2 (protein, UniProt Q3UL97 1-452)
chain: MESPDRKRQKVLKAKKTMPTSYQKQLEILNKSTNVEAPKTTVGTNIPNGHNQKMFSKNKENVKVMKVSEQINENACGALERHTALLEQVKHWIRQEICMINCNLFDKKLNELNERIGKTQCKSRHEAIAGELFVKIRRLQKRIKTVLSSQRNCLEPNTLPSNTVCKVTDSEAMNLNVTQKSVKSRSKRISSVNHTPLNSSEKAGRKTNLPSTCVEFASESNTDDVMLISVKNSNLTTSITSEQTEIRKNTSRNLSNSPNSMIKVGPVEKKFDFVIDLTREGPSNYSIESPSFTLKSTSKAVLRSKEIIPVAENGNEGFGSFEHLPPLPEPPAPLPEMADKIKDTLPPQKPELKVKWVLRPTSIALTWNIPKVNPNCAPVESYHLFLYYENSDHLTWKKIAEIKALPLPMACTLSQNLASTKYYFAVQSKDIFGRYGPFCNIKSIPRFSENLT
B2: the binding entry is “no binding”.
